According to PMC8427838:
These are yes or no findings as the source states them, for the method shown. Binding seen in cells or lysates may run through a third protein. Here binding means that the protein was enriched with, or labelled near, the bait; the list need not be complete. Where a sequence is shown, tags or fusion partners need not be part of it.

Protein sequences, listed by entry. Tags and fused reporters are not part of them.
UniProt P26038: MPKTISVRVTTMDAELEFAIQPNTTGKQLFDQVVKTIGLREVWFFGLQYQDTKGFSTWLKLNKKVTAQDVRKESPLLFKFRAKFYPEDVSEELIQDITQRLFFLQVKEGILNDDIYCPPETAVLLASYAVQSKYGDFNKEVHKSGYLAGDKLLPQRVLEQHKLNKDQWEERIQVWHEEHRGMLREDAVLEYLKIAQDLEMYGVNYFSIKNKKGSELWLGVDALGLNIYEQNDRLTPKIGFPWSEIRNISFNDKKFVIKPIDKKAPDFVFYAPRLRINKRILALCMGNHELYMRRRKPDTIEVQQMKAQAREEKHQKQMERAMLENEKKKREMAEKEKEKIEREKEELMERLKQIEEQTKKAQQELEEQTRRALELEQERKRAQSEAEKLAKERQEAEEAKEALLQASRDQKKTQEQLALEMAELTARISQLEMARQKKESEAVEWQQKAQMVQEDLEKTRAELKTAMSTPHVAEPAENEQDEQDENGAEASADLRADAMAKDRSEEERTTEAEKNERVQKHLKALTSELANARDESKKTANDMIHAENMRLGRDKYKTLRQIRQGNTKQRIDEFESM

Target: T1, GST-TMIGD1 (GST fusion of the cytoplasmic domain of human TMIGD1) (human) (UniProt Q6UXZ0)
T1 sequence: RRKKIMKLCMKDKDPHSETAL
Test: affinity purification with mass spectrometry; GST-TMIGD1 bound via glutathione to agarose resin, incubated with whole cell lysate of 786-0 cells; captured proteins resolved on SDS-PAGE, bands excised, LC-MS/MS; only the target purified

- binding: binds
Substance: moesin (endogenous, 786-0 renal carcinoma cells) (from UniProt P26038 1-577)
